Results as given in PMC2850930.
Results are given in words; binding and its absence hold for the method and conditions named. In cells and extracts the contact can be indirect. Some entries that bind do so weakly or less than the wild type. Sequences can lack the tags named with a protein.

Biological target: T1, Drosophila Parkin (Drosophila (endogenous in adult flies)) (UniProt Q7KTX7)
T1 sequence: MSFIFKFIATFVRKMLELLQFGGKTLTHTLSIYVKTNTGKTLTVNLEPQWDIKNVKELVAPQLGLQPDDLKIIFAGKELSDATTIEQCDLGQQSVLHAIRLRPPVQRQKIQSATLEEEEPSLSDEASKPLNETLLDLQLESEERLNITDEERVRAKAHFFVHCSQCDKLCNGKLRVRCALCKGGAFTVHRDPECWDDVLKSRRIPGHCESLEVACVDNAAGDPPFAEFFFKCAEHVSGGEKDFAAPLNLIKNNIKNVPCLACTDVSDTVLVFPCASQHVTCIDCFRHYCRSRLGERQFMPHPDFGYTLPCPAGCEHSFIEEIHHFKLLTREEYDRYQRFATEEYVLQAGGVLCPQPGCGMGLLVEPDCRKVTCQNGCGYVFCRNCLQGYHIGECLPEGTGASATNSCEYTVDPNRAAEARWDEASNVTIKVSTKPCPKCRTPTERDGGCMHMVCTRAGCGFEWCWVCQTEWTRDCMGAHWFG
Experiment: co-IP; affinity purified anti-Parkin antiserum used to immunoprecipitate Parkin from lysate of wt adult flies (park^25 null mutants as control); blot with anti-dMfn antiserum; lysis buffer 50 mM Tris-HCl pH 7.4, 150 mM NaCl, 1% NP-40, 10% glycerol; overnight at 4°C, Protein G Sepharose

B1: Drosophila Mitofusin (dMfn) (protein, UniProt Q7YU24 1-810)
chain: MAAYLNRTISMVTGQTGPADDDRHASSTDTVDKSGPGSPLSRFNSSLQQSGSTMAANLLPESRLYQSNDKSPLQIFVRAKKKINDIYGEIEEYVHETTTFINALHAEAEIVDKAERELFESYVYKVAAIREVLQRDHMKVAFFGRTSNGKSSVINAMLREKILPSGIGHTTNCFCQVEGSNGGEAYLMTEGSEEKLNVVNIKQLANALCQEKLCESSLVRIFWPRERCSLLRDDVVFVDSPGVDVSANLDDWIDNHCLNADVFVLVLNAESTMTRAEKQFFHTVSQKLSKPNIFILNNRWDASANEPECQESVKSQHTERCIDFLTKELKVSNEKEAAERVFFVSARETLQARIEEAKGNPPHMGAIAEGFQIRYFEFQDFERKFEECISQSAVKTKFQQHSSRGKSVSGDMKSMLDNIYERITIFRNLKQDQKNLLTERIQGTETQMMQVTREMKMKIHNMVEEVEEKVSKALNEEIWRLGVLIDEFNMPFHPERLVLNIYKKELNAHVESGLGSNLRARLSMALAMNVESAQTEMTDRMHALVPNEQLLATSTKMVVRTQPFEMLYSLNCQNLCADFQEDLEFKFSWGIAAMIQRFTGKVRERSKKGQPALVNRQSSIGHSVSTPTTTPVEATPVCLLPAPVVAGITPEQLSLISRFAVSSIGSQGTVGGLVVAGVMLKTIGWRVLVGVGALYGCIYLYERLSWTNSAKERTFKSQYVRHATKKLKMIVDLTSANCSHQVQQELSSTFARLCRTVDTATTDMNDELKTLDSQLNILEANQKQLKLLRNKANYIQNELDIFEHNYISPQ
B1 was tested, and the binding was “binds”.
